Assay results from the supplement of paper PMC10849652.
This is one part of the list.

The chains behind the UniProt entries cited, without tags or fusion partners. Where a name states a change or a piece, a line headed by the entry shows the natural chain unless it says otherwise.
UniProt Q8TEA1: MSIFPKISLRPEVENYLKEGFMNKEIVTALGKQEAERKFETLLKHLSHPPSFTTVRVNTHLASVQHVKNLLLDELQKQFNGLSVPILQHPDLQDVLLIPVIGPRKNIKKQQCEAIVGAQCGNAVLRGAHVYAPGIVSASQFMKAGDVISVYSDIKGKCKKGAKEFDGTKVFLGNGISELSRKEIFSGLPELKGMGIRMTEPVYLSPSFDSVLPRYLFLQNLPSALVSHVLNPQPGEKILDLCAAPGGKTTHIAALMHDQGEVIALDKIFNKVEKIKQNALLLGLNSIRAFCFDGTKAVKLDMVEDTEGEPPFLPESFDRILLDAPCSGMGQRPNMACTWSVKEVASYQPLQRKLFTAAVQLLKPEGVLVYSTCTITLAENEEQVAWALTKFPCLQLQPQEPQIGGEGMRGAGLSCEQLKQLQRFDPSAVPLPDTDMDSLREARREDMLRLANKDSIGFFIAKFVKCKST
UniProt Q8TCD5: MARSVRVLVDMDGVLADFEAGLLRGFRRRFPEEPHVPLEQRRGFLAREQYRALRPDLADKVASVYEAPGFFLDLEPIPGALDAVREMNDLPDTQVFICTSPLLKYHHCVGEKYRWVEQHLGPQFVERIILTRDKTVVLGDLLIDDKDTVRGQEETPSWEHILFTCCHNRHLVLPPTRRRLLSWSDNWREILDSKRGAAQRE
UniProt Q8NFH4: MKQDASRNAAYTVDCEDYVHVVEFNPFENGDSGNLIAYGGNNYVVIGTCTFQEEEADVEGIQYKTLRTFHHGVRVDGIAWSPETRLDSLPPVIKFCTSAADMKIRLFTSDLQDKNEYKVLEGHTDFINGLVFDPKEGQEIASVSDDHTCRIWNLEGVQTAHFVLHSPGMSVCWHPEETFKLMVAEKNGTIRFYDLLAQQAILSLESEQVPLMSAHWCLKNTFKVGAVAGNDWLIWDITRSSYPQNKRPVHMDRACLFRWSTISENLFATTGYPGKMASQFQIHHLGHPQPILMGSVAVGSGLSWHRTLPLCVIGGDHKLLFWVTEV
UniProt Q8N1F7: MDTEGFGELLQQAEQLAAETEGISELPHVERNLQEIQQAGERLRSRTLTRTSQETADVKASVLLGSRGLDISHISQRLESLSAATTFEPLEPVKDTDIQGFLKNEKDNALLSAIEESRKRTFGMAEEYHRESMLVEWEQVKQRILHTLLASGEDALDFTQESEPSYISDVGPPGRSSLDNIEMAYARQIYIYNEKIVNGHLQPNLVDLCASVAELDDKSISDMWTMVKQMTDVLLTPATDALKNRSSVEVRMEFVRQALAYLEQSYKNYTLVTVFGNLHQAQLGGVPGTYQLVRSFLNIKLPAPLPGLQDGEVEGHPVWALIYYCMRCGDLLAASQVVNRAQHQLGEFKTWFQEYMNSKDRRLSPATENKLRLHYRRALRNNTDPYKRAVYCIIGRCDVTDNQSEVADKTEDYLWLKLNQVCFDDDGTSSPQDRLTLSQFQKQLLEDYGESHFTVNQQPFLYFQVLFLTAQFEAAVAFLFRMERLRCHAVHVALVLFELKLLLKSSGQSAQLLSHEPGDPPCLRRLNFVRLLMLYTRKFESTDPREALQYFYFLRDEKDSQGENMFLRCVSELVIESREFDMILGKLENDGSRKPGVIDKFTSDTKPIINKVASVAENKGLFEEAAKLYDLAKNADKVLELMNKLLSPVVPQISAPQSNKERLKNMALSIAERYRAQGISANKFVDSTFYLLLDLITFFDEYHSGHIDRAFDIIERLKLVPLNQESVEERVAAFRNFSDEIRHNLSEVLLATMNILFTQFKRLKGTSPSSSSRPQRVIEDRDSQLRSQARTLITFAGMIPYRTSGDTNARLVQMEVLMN
UniProt Q02818: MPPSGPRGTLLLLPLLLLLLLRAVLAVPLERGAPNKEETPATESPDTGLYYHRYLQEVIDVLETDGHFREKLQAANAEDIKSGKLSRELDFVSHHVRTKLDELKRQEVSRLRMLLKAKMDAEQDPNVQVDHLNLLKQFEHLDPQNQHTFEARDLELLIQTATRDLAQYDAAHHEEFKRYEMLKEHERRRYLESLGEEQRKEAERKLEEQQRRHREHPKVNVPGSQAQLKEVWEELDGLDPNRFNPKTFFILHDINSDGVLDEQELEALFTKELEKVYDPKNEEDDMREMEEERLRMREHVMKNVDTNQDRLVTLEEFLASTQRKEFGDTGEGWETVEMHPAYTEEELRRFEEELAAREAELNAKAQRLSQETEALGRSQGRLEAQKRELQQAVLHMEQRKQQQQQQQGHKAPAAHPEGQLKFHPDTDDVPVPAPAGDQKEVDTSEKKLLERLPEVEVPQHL
UniProt Q8IVD9: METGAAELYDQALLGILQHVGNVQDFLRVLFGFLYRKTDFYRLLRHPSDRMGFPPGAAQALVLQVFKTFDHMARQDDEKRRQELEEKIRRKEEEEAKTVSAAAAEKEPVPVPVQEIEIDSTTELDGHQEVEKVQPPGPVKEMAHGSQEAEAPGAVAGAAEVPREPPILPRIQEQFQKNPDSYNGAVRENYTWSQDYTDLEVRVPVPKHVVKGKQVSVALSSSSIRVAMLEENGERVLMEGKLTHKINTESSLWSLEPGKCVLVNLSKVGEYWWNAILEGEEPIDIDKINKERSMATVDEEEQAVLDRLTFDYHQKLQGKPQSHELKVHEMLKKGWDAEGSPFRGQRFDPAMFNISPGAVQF
UniProt P07237: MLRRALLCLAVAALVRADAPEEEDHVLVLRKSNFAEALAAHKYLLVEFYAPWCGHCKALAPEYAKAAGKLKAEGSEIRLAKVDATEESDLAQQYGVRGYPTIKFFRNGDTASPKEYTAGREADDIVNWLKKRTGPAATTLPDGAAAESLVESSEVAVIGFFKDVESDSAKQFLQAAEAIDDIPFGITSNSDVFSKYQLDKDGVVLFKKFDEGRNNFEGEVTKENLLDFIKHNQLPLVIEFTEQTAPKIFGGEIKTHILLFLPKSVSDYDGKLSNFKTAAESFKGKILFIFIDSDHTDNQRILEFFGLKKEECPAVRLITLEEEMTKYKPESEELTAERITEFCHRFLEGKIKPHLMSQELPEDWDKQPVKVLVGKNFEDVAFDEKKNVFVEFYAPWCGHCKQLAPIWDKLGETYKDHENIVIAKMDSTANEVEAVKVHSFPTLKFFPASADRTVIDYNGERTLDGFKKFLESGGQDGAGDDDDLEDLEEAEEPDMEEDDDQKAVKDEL
UniProt P13674: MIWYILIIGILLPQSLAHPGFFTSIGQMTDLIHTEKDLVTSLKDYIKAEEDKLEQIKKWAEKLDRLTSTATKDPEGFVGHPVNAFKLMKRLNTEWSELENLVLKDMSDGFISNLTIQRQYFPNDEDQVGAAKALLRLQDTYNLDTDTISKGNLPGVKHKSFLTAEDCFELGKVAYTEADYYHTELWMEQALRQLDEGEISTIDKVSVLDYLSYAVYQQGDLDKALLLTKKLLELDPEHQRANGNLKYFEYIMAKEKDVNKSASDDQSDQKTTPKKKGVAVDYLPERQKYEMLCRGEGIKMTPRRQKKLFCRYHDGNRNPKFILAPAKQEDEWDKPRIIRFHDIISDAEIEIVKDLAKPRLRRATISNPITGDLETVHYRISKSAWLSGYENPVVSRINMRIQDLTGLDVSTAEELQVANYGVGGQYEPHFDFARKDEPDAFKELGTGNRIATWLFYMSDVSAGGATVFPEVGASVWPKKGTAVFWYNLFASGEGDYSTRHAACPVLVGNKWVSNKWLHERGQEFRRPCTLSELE
UniProt P00480: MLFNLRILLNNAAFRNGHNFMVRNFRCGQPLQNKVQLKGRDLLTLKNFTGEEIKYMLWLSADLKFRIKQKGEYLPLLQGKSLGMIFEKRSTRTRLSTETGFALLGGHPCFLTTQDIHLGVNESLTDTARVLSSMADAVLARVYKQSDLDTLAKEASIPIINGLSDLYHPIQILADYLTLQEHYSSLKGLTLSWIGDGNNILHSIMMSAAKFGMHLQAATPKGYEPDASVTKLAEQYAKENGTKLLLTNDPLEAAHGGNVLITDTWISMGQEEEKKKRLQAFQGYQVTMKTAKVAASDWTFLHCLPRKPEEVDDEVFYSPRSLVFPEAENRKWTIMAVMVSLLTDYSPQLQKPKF
UniProt Q9UKX7: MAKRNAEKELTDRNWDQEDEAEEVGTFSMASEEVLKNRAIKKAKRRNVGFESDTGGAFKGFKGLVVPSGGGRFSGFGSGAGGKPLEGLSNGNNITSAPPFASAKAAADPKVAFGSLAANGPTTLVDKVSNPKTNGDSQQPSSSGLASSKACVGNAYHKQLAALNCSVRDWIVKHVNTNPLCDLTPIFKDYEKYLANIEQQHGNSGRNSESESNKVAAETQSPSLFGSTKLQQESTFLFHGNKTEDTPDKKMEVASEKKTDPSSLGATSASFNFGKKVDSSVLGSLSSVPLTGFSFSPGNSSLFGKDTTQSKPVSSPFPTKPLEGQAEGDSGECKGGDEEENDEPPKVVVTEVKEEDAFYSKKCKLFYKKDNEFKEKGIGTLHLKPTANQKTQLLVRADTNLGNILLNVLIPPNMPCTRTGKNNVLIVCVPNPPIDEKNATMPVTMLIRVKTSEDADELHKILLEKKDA
UniProt Q96FW1, whole entry, looked up: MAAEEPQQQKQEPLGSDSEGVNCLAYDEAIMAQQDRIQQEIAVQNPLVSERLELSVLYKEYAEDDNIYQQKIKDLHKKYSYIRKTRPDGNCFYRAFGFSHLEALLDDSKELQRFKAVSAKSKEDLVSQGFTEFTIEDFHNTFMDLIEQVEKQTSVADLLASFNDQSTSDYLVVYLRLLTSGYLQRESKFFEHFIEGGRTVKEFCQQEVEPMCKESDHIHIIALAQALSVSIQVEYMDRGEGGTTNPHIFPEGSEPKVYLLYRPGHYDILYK
UniProt Q9UQ80: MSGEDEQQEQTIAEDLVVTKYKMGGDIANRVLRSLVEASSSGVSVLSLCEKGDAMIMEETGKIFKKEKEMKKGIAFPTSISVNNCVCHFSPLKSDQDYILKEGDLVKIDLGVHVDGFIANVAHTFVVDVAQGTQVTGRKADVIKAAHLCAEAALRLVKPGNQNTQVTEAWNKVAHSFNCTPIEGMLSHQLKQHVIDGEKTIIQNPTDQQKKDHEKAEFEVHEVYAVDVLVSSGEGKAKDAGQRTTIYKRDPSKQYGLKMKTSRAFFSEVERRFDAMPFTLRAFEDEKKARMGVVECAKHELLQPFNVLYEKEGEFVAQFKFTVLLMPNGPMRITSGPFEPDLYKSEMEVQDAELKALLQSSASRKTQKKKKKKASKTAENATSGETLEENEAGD
UniProt A8MXV4: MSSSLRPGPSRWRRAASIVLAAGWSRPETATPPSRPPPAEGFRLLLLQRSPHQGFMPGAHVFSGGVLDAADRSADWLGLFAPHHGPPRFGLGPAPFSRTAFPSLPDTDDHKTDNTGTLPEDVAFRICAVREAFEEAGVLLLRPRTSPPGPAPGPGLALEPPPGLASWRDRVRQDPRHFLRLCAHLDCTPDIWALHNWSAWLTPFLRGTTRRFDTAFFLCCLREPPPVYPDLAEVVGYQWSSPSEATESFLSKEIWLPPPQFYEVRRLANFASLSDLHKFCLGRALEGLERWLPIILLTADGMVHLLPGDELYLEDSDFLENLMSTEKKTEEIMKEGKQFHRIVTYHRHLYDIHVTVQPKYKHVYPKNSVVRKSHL
UniProt Q9BXS6: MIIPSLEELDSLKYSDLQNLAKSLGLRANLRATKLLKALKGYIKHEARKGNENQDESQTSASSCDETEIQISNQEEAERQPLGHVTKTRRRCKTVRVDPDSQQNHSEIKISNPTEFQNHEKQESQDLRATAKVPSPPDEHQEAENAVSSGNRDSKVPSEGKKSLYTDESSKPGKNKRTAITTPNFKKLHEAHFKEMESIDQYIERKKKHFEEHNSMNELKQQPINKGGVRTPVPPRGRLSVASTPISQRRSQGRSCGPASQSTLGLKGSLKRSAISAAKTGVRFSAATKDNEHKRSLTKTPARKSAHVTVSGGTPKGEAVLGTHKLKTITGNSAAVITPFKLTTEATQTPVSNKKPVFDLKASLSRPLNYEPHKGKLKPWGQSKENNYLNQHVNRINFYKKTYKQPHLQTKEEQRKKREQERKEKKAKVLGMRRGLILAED
UniProt Q9Y5A7: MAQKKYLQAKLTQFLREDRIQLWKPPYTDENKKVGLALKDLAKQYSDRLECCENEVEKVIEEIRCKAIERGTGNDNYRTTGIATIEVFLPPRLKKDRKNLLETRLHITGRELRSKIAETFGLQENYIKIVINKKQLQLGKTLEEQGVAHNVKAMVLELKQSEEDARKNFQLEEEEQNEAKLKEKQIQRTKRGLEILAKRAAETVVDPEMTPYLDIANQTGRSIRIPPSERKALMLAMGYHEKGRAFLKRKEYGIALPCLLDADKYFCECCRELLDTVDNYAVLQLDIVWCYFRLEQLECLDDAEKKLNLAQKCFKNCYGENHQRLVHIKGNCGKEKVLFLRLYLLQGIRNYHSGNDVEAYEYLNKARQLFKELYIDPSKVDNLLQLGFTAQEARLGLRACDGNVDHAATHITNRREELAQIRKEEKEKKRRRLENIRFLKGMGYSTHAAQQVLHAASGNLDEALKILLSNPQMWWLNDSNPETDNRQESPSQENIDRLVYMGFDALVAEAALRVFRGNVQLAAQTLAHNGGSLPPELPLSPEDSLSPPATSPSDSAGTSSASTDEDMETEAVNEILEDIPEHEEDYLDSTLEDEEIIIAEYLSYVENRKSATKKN

What follows are targets tested with CC[C@@H]1C(=O)N(C)c2cnc(Nc3ccc(C(=O)NC4CCN(C)CC4)cc3OC)nc2N1C1CCCC1 (assay: log2 fold change, soluble protein after heating vs DMSO (PISA); higher = thermal stabilisation; K562 cells, 10 uM, 30 min; active = over 0.2 and 3.5 SD of the protein, either way, in both replicates (recomputed)).
In short: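 For each measurement, 10 μM compound was applied for 30 min to K562 cells at 2×10^6 cells/mL. Aliquots were heated for 3 min across 48°C-58°C, pooled, and extracted in PBS with 0.5% NP-40 at 4°C; the supernatant after 21,000xg for 90 min was soluble protein. This was quantified by TMTpro 16plex LC-MS/MS with channel sums equalised, and thermal stability was reported relative to control samples from duplicates, on a log2 fold-change scale.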

log2 fold change, inactive:
NSUN6 (UniProt Q8TEA1) -0.012
NT5C (UniProt Q8TCD5) 0.023
NUP37 (UniProt Q8NFH4) -0.011
NUP93 (UniProt Q8N1F7) -0.059
OSBPL6 isoform 5 (UniProt Q9BZF3) 0.484
NUCB1 (UniProt Q02818) 0.062
NUDCD3 (UniProt Q8IVD9) -0.107
P4HB (UniProt P07237) 0.02
P4HA1 (UniProt P13674) 0.042
OTC (UniProt P00480) 0.258
OS9 (UniProt Q13438) 0.018
NUP133 (UniProt Q8WUM0) -0.041
NUP50 (UniProt Q9UKX7) 0.073
NUCB2 (UniProt P80303) 0.045
ORC6 (UniProt Q9Y5N6) -0.045
OIP5 (UniProt O43482) 0
OTUB1 (UniProt Q96FW1) -0.063
PA2G4 (UniProt Q9UQ80) 0.038
NUDT19 (UniProt A8MXV4) -0.02
NUSAP1 (UniProt Q9BXS6) 0.213
NT5DC2 isoform 2 (UniProt Q9H857) 0.054
NUBP2 (UniProt Q9Y5Y2) -0.003
NUB1 (UniProt Q9Y5A7) -0.014
ORC4 (UniProt O43929) -0.09

Retrieved one by one from the entries so far (two):
log2 fold change, inactive:
ORC6 (UniProt Q9Y5N6) -0.045
NUCB2 (UniProt P80303) 0.045
